The values below come from PMC6278354, “Investigation of New Orexin 2 Receptor Modulators Using In Silico and In Vitro Methods” (Molecules, 2018).

The series is described as follows: PAMPA assay for prediction of BBB penetration (polar brain lipid).

A word on the Papp: it is the rate of passage across a membrane or cell layer, normalised by area and donor concentration.

Consider `NS(=O)(=O)c1cc(C(=O)O)c(NCc2ccco2)cc1Cl` [Furosemide, reference compound], for which, for the setting “PAMPA, pH 7.4”, the Papp at 30 µM is 0.2 ± 0.07 ×10⁻⁶ cm/s. The “CNS Predicted Availability” value (class from PAMPA Pe) is listed as “CNS − (CNS − (low BBB permeation predicted): Pe (×10^−6 cm s^−1) < 2.0)”.
